Earlier results, collected in patent US20070196514A1, “Prostate cancer treatment with glycogen synthase kinase-3beta inhibitors” (priority 2006, published 2007).
For at least one compound, name, drawing or mass did not settle the structure.

Key:
[1] = test system: cancer cell growth derived from hepatocellular carcinoma; conditions: cell culture system; Erdal 2005; cited from earlier work
[2] = test system: cancer development; conditions: lithium-treated patients with mental disorders; Cohen 1998; cited from earlier work
[3] = test system: CDKs; conditions: non-ATP competitive GSK-3β inhibitor; Pheil 2001; cited from earlier work

[Li] [lithium]
cancer cell growth derived from hepatocellular carcinoma [1]: inhibited cancer cell growth
risk of cancer development vs untreated group or general population [2]: significantly lower
inhibition of CDKs [3]: does not inhibit CDKs
